Drawing on publication PMC7284125, “Identification of annotated bioactive molecules that impair motility of the blood fluke Schistosoma mansoni” (International Journal for Parasitology: Drugs and Drug …, 2020), this text covers viability for one molecule.

The test system of the assay is S. mansoni schistosomulae. Briefly: Phenotypic primary screen assay on schistosomulae (phenotype; viability by methylene blue dye exclusion). The assay is classed as cell-based. Conditions: Schistosoma mansoni, three-day-old schistosomulae, 24 h, calculated 5 days post compound exposure.

On to `CCCCc1oc2ccccc2c1C(=O)c1cc(I)c(OCCN(CC)CC)c(I)c1` [Amiodarone], for which the viability (usually a read-out of living cells in per cent, often relative to untreated cells) at 10 µM was 55%.
